Assay results as given in PMC10163288.
The list shows a part of the results.

B1: il2ra_site1_2b5i_normal_mot_ems_3hM_3687_af2_000000248_0001_45_64_H_._HHH_b2_07463_0001_0000100007_0000001_0_af2pred_dldesign_0_af2pred (protein)
chain: SSSSSPLAEEVERTLAEAEELIKAGKRREALELLEEIYKKVAAADDEELEDKVYEFAKKLSSSSS
B2: il2ra_site2_3nfp_normal_mot_HHH_b1_04429_af2_000000130_0001_1_18_H_._HHH_b2_03321_0001_0000100007_0000001_0_af2pred_0001_af2pred (protein)
chain: SSSSSEEEELKILATFALSWAQHLEDPELRRELEELAEELEEKGDPELAEEILRLLLEISSSSSS
B3: il2ra_site2_2erj_normal_mot_HHH_b1_03990_af2_000000075_0001_19_35_H_._ems_p1-16H-GBL-16H-GABBL-16H_0048_0001_0001_0001_0001_0000200004_0000001_0_af2pred_0001_af … (protein)
chain: SSSSDEVAELALRVSKIAREKGDEEAFRKALEIFARYQRGRLSEEEASELLERLLKEAESSSSSS
B4: il2ra_site1_3nfp_sap_10_mot_cc4219192d8ccd35c40e7b68f9a57604_0001_af2_000000124_0001_16_32_H_._HHH_b2_07250_0001_0000100001_0000001_0_0001 (protein)
chain: SSSSSEIEEEVRELLEEAEQLLKEGDWEEAAKVVEEAMKLASQANDDELDQLIMEWVRKLSSSSS
B5: il2ra_site1_2b5i_normal_mot_HHH_b1_05687_000000128_0001_1_14_H_._ems_3hC_243_0001_0001_0000200011_0000001_0_af2pred_dldesign_0_af2pred (protein)
chain: DIEALAAEVERLANETEESLEDYDEALALRREVSDLLYKALHSPDPEEARRLLEEAKRLLEARKS
B6: il2ra_site1_3nfp_normal_mot_e80b558ee5422d85aa46efdc370d0602_0001_af2_000000114_0001_54_65_H_._HHH_b1_03316_af2_0001_0000100003_0000001_0 (protein)
chain: SSSSDALEWLEKAIEEAFENNDKLQLRALIKILELALKKIGDPEAEKLLREAEELLEELNSSSSS
B7: il2ra_site1_2b5i_sap_16_mot_HHH_b2_03902_000000280_0001_1_17_H_._HHH_b2_04021_0001_0000100006_0000001_0_0001_af2pred_dldesign_0_af2pred (protein)
chain: SSSSSAKRKEVEELVRRARELRAAGRYREALEALDEAKKLADEIDDEEKADEIDRLARELSSSSS
B8: il2ra_site2_2erj_sap_16_mot_HHH_b2_07792_af2_000000252_0001_18_34_H_._HHH_b1_07975_af2_0001_0000200006_0000001_0_0001 (protein)
chain: SSSSSDTEEEVEELLEQAKRITDLREVYRLAVEALHLAARVQDPELQRLVAEVVEELSRSSSSSS
B9: il2ra_site1_2b5i_sap_17_mot_HHH_b1_07134_000000048_0001_1_20_H_._b9b1aa0f98829a21a591038753170461_0001_1_af2_0001_0000200027_0000001_0_0001_af2pred_dldesign_0_a … (protein)
chain: SARRILESALKQYPDDRSLRLALRALELKEEGREEEVERLRAELEALAAAGDKNAAEALYLVENG
B10: il2ra_site2_3nfp_sap_19_mot_25f1968e850989674ab44a96009b2963_0001_000000295_0001_53_65_H_._ems_4hM_3289_af2_0001_0000700019_0000001_0_0001 (protein)
chain: SSSSDERAKRAVREALHALELLLQRGDEEWVELTKEYLEAAIKLHNDEEAEELLEELEKKYSSSS

Target: il2ra, P01589
Assay: yeast display titration

Binder	apparent Kd
B1	inactive: no binding seen
B2	inactive: no binding seen
B3	inactive: no binding seen
B4	inactive: no binding seen
B5	inactive: no binding seen
B6	inactive: no binding seen
B7	inactive: no binding seen
B8	inactive: no binding seen
B9	inactive: no binding seen
B10	inactive: no binding seen

Pulled one by one from the list above (2):
Binder	apparent Kd
B10	inactive: no binding seen
B8	inactive: no binding seen
